# Source: patent US6124308A, “Optically active phenyl pyrimidine derivatives as analgesic agent” (priority 1995, dated 2000)
# For at least one compound, name, drawing or mass did not settle the structure.
# Tests used:
# [1] = Solubility of salts in water and pH (drug addition method); type: physicochemical; settings: water, room temperature
# Description: The solubility was determined by means of the drug addition method. At room temperature the drug was added to 0.25 ml deionised water. The sample was diluted to 2 ml for pH determination. A single determination was carried out.
# [2] = Melting profile / stability of salts (Mettler hotstage and DSC); type: physicochemical; settings: 10° C./min
# Description: Events on heating were monitored visually using a Mettler hotstage and a microscope. A DSC scan was then used to confirm the observed events and identify the type of event. The DSC experiments were performed using the Perkin Elmer DSC-7 system with a TAC7/DX recorder. In order to capture as many events as possible a scan irate of 10° C./min and 1-2 mg sample size was used. DSC sweeps between 40° C. and 400° C. or from and to 50° C. outside any event observed on the hot stage were carried out on one or two samples. The samples and reference (air) were placed in 50 μl aluminium pans with holes.
smiles,measurement,setting,value
Nc1nc(N)c(-c2cccc(Cl)c2Cl)c(CF)n1 [Salicylate],pH of the solution,[1],3-2
same,temperature of racemisation indicated by hotstage/DSC,[2],60 °C
